This is one part of the list.
Assay: concentration-response yeast growth inhibition under permissive conditions, counter-assay for yeast lifespan-shortening chemical project (AID 850);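 further: growth read as optical density after one day of incubation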
Settings: Saccharomyces cerevisiae growth inhibition, permissive control; measured here: maximum growth inhibition; at 3.125 µM; stronger effect = higher value

O=[N+]([O-])c1cc([N+](=O)[O-])c(-c2ccn[nH]2)s1
inhibition: 39.5%
